This passage reports binding results from publication PMC7801470.

The chains behind the UniProt entries cited, without tags or fusion partners.
UniProt O60260: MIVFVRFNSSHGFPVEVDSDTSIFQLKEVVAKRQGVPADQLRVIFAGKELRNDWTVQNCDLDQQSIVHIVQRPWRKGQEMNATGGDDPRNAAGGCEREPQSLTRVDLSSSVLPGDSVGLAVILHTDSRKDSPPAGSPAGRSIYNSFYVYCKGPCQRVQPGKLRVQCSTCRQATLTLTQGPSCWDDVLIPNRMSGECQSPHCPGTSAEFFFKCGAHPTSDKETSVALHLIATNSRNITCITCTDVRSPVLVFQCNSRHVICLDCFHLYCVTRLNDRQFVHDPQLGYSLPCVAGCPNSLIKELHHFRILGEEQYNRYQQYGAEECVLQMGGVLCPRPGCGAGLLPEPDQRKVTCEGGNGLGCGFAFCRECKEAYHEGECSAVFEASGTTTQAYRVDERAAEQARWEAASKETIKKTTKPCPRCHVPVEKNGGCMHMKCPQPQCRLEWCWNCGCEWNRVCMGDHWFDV

This experiment deals with PARK2 (UniProt O60260). Description: co-IP; co-immunoprecipitation from cells; cell line, precipitating antibody and buffer not told.

No constants are given. Whether binding was seen depends on the method and setting. In cells and extracts the contact can be indirect. Some binding calls cover weakened binding; strength is not graded here.

BCL-XL (from UniProt Q07817-1 1-233): the binding result is “binds”.
